Values of other authors in patent US7262170B2, “Pharmaceutical composition for reducing vaginal acidity and treatment of vaginitis, and the use thereof” (priority 1998, dated 2007).
Some entries share one result that the patent states for a list of compounds. Some compounds share one range, which may span the group rather than tell each member.

Tested on: fungal vaginitis
Conditions: anti-fungal drug alone; cited from earlier work

Compound	curative rate
CC(=O)N1CCN(c2ccc(OCC3COC(Cn4ccnc4)(c4ccc(Cl)cc4Cl)O3)cc2)CC1 (stereo not drawn) [Ketoconazole]	85-90%
Treconazole	85-90%
OC(Cn1cncn1)(Cn1cncn1)c1ccc(F)cc1F [Fluconazole]	85-90%
